For 2 substances, binding results are on record in article PMC3859618.

Chains of the proteins cited; added tags and fusions are not shown.
UniProt P53350: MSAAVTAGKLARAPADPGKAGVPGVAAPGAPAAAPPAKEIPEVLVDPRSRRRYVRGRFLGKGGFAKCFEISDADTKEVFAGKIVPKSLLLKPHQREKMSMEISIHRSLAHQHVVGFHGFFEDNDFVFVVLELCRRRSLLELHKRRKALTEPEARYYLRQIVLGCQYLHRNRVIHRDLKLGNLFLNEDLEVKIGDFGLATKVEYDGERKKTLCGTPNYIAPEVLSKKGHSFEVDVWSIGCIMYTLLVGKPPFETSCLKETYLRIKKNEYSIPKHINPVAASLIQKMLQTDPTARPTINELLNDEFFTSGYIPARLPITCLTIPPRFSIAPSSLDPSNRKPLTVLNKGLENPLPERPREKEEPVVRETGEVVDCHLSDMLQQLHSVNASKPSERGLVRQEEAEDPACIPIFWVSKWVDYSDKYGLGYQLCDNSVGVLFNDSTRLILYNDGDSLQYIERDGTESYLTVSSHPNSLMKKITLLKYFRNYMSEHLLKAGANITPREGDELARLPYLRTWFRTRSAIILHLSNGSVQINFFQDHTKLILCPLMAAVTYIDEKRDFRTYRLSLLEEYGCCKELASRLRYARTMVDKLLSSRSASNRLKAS
UniProt Q14676: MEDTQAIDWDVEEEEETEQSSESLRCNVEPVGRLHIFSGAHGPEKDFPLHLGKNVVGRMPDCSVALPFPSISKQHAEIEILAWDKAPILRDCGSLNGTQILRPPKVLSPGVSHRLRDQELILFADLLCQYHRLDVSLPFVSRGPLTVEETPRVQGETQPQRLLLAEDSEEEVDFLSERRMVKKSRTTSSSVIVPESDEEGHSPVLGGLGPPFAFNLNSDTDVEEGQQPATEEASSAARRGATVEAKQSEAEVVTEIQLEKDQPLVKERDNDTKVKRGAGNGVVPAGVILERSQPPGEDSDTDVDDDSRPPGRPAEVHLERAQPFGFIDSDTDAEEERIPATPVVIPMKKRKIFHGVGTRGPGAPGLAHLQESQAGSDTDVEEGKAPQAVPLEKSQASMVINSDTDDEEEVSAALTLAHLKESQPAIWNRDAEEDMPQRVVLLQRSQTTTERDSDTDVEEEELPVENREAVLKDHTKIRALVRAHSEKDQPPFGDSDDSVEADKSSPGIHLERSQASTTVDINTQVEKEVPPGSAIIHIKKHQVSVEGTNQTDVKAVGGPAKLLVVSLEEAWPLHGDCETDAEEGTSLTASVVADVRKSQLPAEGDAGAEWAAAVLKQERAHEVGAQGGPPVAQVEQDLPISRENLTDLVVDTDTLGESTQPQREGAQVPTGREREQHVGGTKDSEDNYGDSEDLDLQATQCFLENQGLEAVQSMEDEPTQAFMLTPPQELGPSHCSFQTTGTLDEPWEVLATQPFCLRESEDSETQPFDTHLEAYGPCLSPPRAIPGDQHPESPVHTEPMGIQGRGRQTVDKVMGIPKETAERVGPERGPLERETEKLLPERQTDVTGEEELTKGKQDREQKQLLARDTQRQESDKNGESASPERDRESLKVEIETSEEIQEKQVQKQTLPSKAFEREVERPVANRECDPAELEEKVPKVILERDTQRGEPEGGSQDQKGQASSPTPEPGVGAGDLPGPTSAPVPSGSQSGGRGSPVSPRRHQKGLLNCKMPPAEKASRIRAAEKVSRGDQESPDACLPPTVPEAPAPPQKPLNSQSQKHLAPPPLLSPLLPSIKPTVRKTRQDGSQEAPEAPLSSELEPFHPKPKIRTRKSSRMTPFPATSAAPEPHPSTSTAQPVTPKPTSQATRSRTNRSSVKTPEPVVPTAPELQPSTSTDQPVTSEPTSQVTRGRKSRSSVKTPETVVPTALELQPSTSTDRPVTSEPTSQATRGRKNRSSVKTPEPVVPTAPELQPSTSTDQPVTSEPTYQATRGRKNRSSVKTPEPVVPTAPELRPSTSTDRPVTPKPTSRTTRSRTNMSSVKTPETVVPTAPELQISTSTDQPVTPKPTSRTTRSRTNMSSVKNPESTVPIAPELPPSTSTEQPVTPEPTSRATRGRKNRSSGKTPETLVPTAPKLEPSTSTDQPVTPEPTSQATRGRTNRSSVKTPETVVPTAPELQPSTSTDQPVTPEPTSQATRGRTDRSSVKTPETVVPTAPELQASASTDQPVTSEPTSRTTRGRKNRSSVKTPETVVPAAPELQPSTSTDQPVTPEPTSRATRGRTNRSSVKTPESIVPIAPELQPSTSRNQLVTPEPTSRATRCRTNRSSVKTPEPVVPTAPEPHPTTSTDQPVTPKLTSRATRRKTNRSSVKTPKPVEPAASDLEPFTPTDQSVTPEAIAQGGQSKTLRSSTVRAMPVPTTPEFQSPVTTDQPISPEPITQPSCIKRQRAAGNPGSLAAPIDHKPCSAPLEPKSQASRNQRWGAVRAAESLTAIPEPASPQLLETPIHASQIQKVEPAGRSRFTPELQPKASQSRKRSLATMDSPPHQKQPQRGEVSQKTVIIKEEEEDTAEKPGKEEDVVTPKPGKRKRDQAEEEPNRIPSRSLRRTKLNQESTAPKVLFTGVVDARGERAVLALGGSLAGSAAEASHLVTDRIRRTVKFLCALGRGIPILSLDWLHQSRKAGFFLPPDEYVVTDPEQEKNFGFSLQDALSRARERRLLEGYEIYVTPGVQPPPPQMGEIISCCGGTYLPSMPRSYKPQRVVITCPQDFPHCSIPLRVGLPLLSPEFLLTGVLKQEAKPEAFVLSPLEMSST

Assay [1] deals with polo-like kinase 1 (PLK1) (human (endogenous in HeLa)) (UniProt P53350). Kind of assay: co-IP; endogenous proteins; HeLa cells synchronized by double-thymidine block, whole cell lysates 6 h after the second release; immunoprecipitation with polyclonal anti-NFBD1 and blot with monoclonal anti-PLK1, and the reciprocal with monoclonal anti-PLK1; normal rabbit or mouse serum as control.

The target in assay [2] is nuclear factor with BRCT domain 1/ mediator of the DNA damage checkpoint protein 1 (NFBD1/MDC1) (human (endogenous in HeLa)) (UniProt Q14676). The assay is described as above.

No constants are given. Whether binding was seen depends on the method and setting. In cells and extracts the contact can be indirect. Some entries that bind do so weakly or less than the wild type.

Consider “nuclear factor with BRCT domain 1/ mediator of the DNA damage checkpoint protein 1 (NFBD1/MDC1) (from UniProt Q14676 1-2089)”, for which, in assay [1], the binding result was “binds”.

For “polo-like kinase 1 (PLK1) (from UniProt P53350 1-603) (enzyme)”, the binding entry in assay [2] is listed as “binds”.
